Results on one molecule are retold here after article PMC6555932.

Protein sequences, listed by entry. Tags and fused reporters are not part of them. Residues count along the entry.
UniProt P05067, residues 672-713: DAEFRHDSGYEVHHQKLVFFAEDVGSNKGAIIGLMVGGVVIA

These are yes or no findings as the source states them, for the method shown. Some binding calls cover weakened binding; strength is not graded here.

This test deals with Oligomerized amyloid β protein 1-42 (UniProt P05067). Kind of test: far-Western, overlay or dot blot; 2 μL of oligomerized Aβ (100 μM; 0.2 nmol) or purified GFP (approx. 50 μM; 0.1 nmol) spotted on nitrocellulose, blocked in 0.3% BSA in PBS, incubated with a mixture of purified hMIF and GFP at approx. 5 μM at 4 °C overnight; detected with anti-MIF (D-2) and polyclonal anti-GFP antibodies; both purified.

B1: Macrophage migration inhibitory factor (human, recombinant) (protein, UniProt P14174 1-115)
chain: MPMFIVNTNVPRASVPDGFLSELTQQLAQATGKPPQYIAVHVVPDQLMAFGGSSEPCALCSLHSIGKIGGAQNRSYSKLLCGLLAERLRISPDRVYINYYDMNAANVGWNNSTFA
On to B1, for which the binding result is listed as “binds”.
